Some entries share one result that the patent states for a list of compounds.
Tested on: TNF production by monocytes
Test: Lipopolysaccharide-Activated Monocyte TNF Production Assay (LPS induced TNF release)
Type: cell-based, human
Details: LPS-activated adherent monocytes from PBMCs
Protocol: Lipopolysaccharide-Activated Monocyte TNF Production Assay
Test compounds were evaluated in vitro for the ability to inhibit the production of TNF by monocytes activated with bacterial lipopolysaccharide (LPS). Fresh residual source leukocytes (a byproduct of plateletpheresis) were obtained from a local blood bank, and peripheral blood mononuclear cells (PBMCs) were isolated by density gradient centrifugation on Ficol-Paque Plus (Pharmacia). PBMCs were suspended at 2×10^6/mL in DMEM supplemented to contain 2% FCS, 10 mM, 0.3 mg/mL […], 100 U/mL penicillin G and […] streptomycin sulfate (complete media). Cells were plated into Falcon flat bottom, 96 well culture plates (200 μL/well) and cultured overnight at 37° C. and 6% CO2. Non-adherent cells were removed by washing with 200 μl/well of fresh medium. Wells containing adherent cells (˜70% monocytes) were replenished with 100 μL of fresh medium.
Preparation of Test Compound Stock Solutions […]
One hundred microliters of each test compound dilution were added to microtiter wells containing adherent monocytes and 100 μL complete medium. […] Culture supernatants were then removed and TNF presence in the supernatants was quantified using an ELISA. […]
Standard curve data were fit to a second order polynomial and unknown TNF-α concentrations determined from their OD by solving this equation for concentration. […]

Structure (SMILES) | IC50 [µM]
Cc1ccc(C(=O)NC2CC2)cc1-c1ccc2c(cnc(=O)n2C2CCOCC2)c1 [Example 9, N-Cyclopropyl-4-methyl-3-(2-oxo-1-(tetrahydro-2H-pyran-4-yl)-1,2-dihydroquinazolin-6-yl)benzamide] | ≤ 25
Cc1ccc(C(=O)NC2CC2)cc1-c1ccc2c(cnc(=O)n2C2CCN(C(=O)OC(C)(C)C)CC2)c1 [Example 14, 1,1-dimethylethyl 4-(6-(5-((cyclopropylamino)carbonyl)-2-methylphenyl)-2-oxo-1(2H)-quinazolinyl)-1-piperidinecarboxylate] | ≤ 25
